Source: patent US4745124A, “Orally effective anti-hypertensive agents” (priority 1983, dated 1988)
For at least one compound, name, drawing or mass did not settle the structure.

Assay: resistance of thioester compounds to alkaline hydrolysis
Type: physicochemical
Text: Therefore the observed inhibitory effects cannot be accounted for by postulating spontaneous hydrolysis of the thioester bond to regenerate the free sulfhydryl group.

## O=C(NC(Cc1ccccc1)C(=O)SCCC(=O)N1CCC[C@H]1C(=O)O)c1ccccc1 (stereo partly drawn) [(III), 3-benzoylphenylalanylthio-propanoyl-L-proline]
  resistance to alkaline hydrolysis: surprisingly resistant to alkaline hydrolysis
